Laboratory results taken from PubChem BioAssay AID2685 (National Center for Advancing Translational Sciences (NCATS), 2010).
The list shows a part of the results. Shown are side measurements of this screen, not its main read-out; they come without a call. Most of these compounds were active or inconclusive in the main read-out, so they are no random draw. Potencies come from curve fits of mixed quality, noted in brackets.

Test: qHTS Assay for Lipid Storage Modulators in Drosophila S3 Cells;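 as to cell number change: cells counted by Cell Tracker Red CMTPX staining in the red channel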
Conditions: BODIPY lipid droplet fluorescence, 18-24 h
Procedure, shortened: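 Drosophila S3 cells loaded with oleic acid (400 uM, as added) and compounds at several concentrations; lipid droplets imaged by 488-nm laser-scanning cytometry, 500–530 nm intensity and object ratio to cell channel. Percent activity normalized to 20 uM Triacsin C.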

SMILES: CCOc1cc(/C=C2/C(=N)N3C(=NC2=O)SN=C3S(C)(=O)=O)ccc1OS(=O)(=O)c1ccccc1
- cell number change (measured here: cell count max response, cells fed with added oleic acid): -30.2%
- AC50 (measured here: cell number channel AC50, cells fed with added oleic acid): 29.1 µM [falling, single point]
- AC50 (measured here: lipid fluorescence (Fed channel) AC50, cells fed with added oleic acid): 6.51 µM [falling, single point]
